The target of experiment [1] is ED-A isoform of fibronectin in vessels of HL-60 tumours grown in nude mice. The experiment can be described thus: immunohistochemistry, HL-60 tumour sections from nude mice, biotinylated SIP 2 ug/ml.
Experiment [2] concerns the target tenascin-C in vessels of HL-60 tumours grown in nude mice. The experiment is described as above.

No constants are given. Whether binding was seen depends on the method and setting. A result given as binding can be weak or reduced; the word gives no strength.

The record followed here is patent US20120121506A1 (PHILOGEN S P A, published 2012).

B1: F8-SIP (V5L/K18R) (antibody)
chain: EVQLLESGGGLVQPGGSLRLSCAASGFTFSLFTMSWVRQAPGKGLEWVSAISGSGGSTYYADSVKGRFTISRDNSKNTLYLQMNSLRAEDTAVYYCAKSTHLYLFDYWGQGTLVTVSSGGGGSGGGSGGGGGEIVLTQSPGTLSLSPGERATLSCRASQSVSMPFLAWYQQKPGQAPRLLIYGASSRATGIPDRFSGSGSGTDFTLTISRLEPEDFAVYYCQQMRGRPPTFGQGTKVEIKSGGSGGPRAAPEVYAFATPEWPGSRDKRTLACLIQNFMPEDISVQWLHNEVQLPDARHSTTQPRKTKGSGFFVFSRLEVTRAEWEQKDEFICRAVHEAASPSQTVQRAVSVNPESSRRGGC
modifications: biotinylated (sites not given)
notes: Human monoclonal mini-immunoglobulin (small immunoprotein, SIP); It was used biotinylated at 2 ug/ml on tissue sections; also called F8 (V5L/K18R)
B1: in experiment [1], the binding entry was “binds”.

B2: 4A1-F16-SIP (antibody)
chain: EVQLLESGGGLVQPGGSLRLSCAASGFTFSRYGMSWVRQAPGKGLEWVSAISGSGGSTYYADSVKGRFTISRDNSKNTLYLQMNSLRAEDTAVYYCAKAHNAFDYWGQGTLVTVSRGGGSGGGSGGSSELTQDPAVSVALGQTVRITCQGDSLRSYYASWYQQKPGQAPVLVIYGKNNRPSGIPDRFSGSSSGNTASLTITGAQAEDEADYYCNSSVYTMPPVVFGGGTKLTVLSGGSGGPRAAPEVYAFATPEWPGSRDKRTLACLIQNFMPEDISVQWLHNEVQLPDARHSTTQPRKTKGSGFFVFSRLEVTRAEWEQKDEFICRAVHEAASPSQTVQRAVSVNPESSRRGGC
modifications: biotinylated (sites not given)
Turning to B2, in experiment [2], the binding entry is “binds”.
